## Microarray screen: hit calls

Source: the ROBIN nucleic acid binder screens (doi:10.1002/anie.202211358).

Targets, with sequences 5′ to 3′:
SAM-II: SAM-II riboswitch RNA pseudoknot, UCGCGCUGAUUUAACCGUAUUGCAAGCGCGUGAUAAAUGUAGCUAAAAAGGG. About 21,000 compounds screened, about 200 hits.
PreQ1: PreQ1 riboswitch RNA pseudoknot, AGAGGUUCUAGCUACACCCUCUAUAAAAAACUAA. From B. subtilis. About 24,000 compounds screened, about 170 hits.
TPP: TPP riboswitch RNA three-way junction, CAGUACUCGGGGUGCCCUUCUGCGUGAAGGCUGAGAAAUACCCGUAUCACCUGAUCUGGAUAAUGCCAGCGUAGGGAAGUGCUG. About 24,000 compounds screened, about 160 hits.

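Compounds were printed on reactive glass slides in duplicate spots, a dye-labelled oligonucleotide was laid over them, and the fluorescence left after washing was read. For the PreQ1, TPP and SAM-II riboswitches the laboratory earlier reported (doi:10.1038/s41467-019-09493-3) 1 µM RNA, 2 h, and a rule that included a mean Z-score above 3 (spot signal-to-noise against the whole library), a score well above that on a control array, and duplicate spots agreeing (coefficient of variation under 100). The data file gives only the calls; its cut-offs may differ, and compounds hitting several targets are kept. These are primary screening calls, not affinities; a compound without a hit may have attached poorly or may still bind in solution.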
Key: yes = hit, no = tested without a hit.
Compounds were drawn at random from those tested, without regard to their results.
A target missing from an entry has no call listed here.
A dash means that no call is listed here.

Compound | SAM-II | PreQ1 | TPP
O=S(=O)(NCCCNc1cccnc1)NCc1ccccc1 | no | no | no
Cc1cc2c(c(=O)o1)C1(C(=O)Nc3ccc(C)c(Br)c31)C(C#N)=C(N)O2 (configuration not stated) | no | no | no
Cc1nc2ccc(-c3nc4cc(N)ccc4o3)cc2[nH]1 | no | no | no
COc1ccccc1-n1nc(Cn2cncn2)nc1-c1ccc(CO)o1 | no | no | no
NS(=O)(=O)c1ccc(CNC(=O)c2ccc(CN3CC[C@@H](O)C3)[nH]c2=O)cc1 | no | no | no
Cc1ccc(Nc2c(-c3ccc(N(C)C)cc3)nc3[nH]cnn23)cc1 | no | no | no
COc1cccc(-c2nc(C)nn2CCO)c1OC | no | no | no
c1nc2c([nH]1)CCNC21CCN(c2ccc3c(c2)OCO3)CC1 | no | no | no
Cn1ccnc1-c1ccccc1C(=O)N1CC2(CCNCC2)CC1C(=O)O (configuration not stated) | no | no | no
CCc1ccc(Cn2nnc(C(=O)Nc3ccc(Br)cc3)c2N)cc1 | no | no | no
CCC(C)NS(=O)(=O)c1cc(Br)cnc1N (configuration not stated) | - | no | no
C#CC(c1ccccc1)(c1ccccc1)n1ccnc1 | no | no | no
CCOc1ccccc1Nc1cc(C(C)C)nc2nc(-c3cccnc3)nn12 | - | no | no
Nc1nc(CCNC(=O)[C@]23CNC[C@H]2CNC3)n[nH]1 | no | no | no
O=C(NCCCCN1CCOCC1)c1cc2ccccc2o1 | no | no | no
COc1ccc(-c2ccc(CNCCCN3CCOCC3)o2)cc1Cl | - | no | no
NNC(=O)c1ccncc1 | no | no | no
OC1(CNCCc2nc3c(s2)CCCC3)CCNC1 (configuration not stated) | no | no | no
O=[N+]([O-])c1cc(S(=O)(=O)C(F)(F)F)ccc1NC1CCS(=O)(=O)C1 (configuration not stated) | no | no | no
CNc1nc(N2CCCCCC2)nc(-n2cnc(SCc3ccccc3)n2)n1 | - | no | no
CCCc1c(OC)c2c(c(OC)c1C1C(C#N)=C(N)OC3=C1C(=O)CCC3)OCO2 (configuration not stated) | no | no | no
CCOC(=O)c1c(N)sc(CC)c1-c1ccccc1 | no | no | no
Cc1cc(NCc2cccnc2)n2nc(-c3ccccc3)c(C)c2n1 | - | no | no
CCNc1oc(-c2ccc(S(=O)(=O)N3CCC(C)CC3)cc2)nc1C#N | - | no | no
CC(O)=C(C#N)C(=O)Nc1cc(Br)ccc1Br | no | no | no
O=C(O)c1ccc(CNCc2ccccc2Cl)s1 | - | no | no
CCN1CCCC1CNc1nc2ccc(C(=O)c3ccccc3)cc2n2c(C)nnc12 (configuration not stated) | - | no | no
O=C(O)CCCNc1ccc(S(=O)(=O)N2CCCCC2)cc1 | no | no | no
CCc1cnc(NCC(O)c2cccc(O)c2)nc1 (configuration not stated) | no | no | no
COc1cc(CNCc2ccc(F)cc2)ccc1OCc1ccc2c(c1)n(C)c(=O)n2C | - | no | no
O=S(=O)(c1ccccc1)c1nc(-c2ccc(F)cc2)oc1NC1CC1 | - | no | no
CCCCCN(C)CCC(O)(P(=O)([O-])O)P(=O)(O)O | no | no | no
Nc1c(Br)cc(Br)c(N2CCCC2=O)c1Br | no | no | no
COc1ccc(C(=O)c2oc3ccccc3c2N)cc1OC | no | yes | no
Clc1ccc2c(N3CCN(CCCN4CCN(c5ccnc6cc(Cl)ccc56)CC4)CC3)ccnc2c1 | no | no | no
COC(=O)C1=C(C(=O)OC)SC(=C2C(=S)C(C)(C)Nc3cc(OC)ccc32)S1 | no | no | no
O=C(NC1CC1)C1CN(CC(c2ccccc2)c2ccccc2)CCN1 (configuration not stated) | no | no | no
Nc1nc(Cl)cc(NCc2ccc3c(c2)OCO3)n1 | no | yes | no
Cc1cc(N2CCN(CCO)CC2)n2nc(-c3ccccc3C)nc2n1 | - | no | no
CC(C)(C)c1cc(CN2CC[C@@H](NC(=O)c3ccncc3)[C@H](O)C2)n[nH]1 | no | no | no
c1ccc(Cc2noc(CCNC3CCOC4(CCOCC4)C3)n2)cc1 (configuration not stated) | no | no | no
CC(=O)C1=C(O)C=C2Oc3c(C(C)=O)c(O)c(C)c(O)c3C2(C)C1=O (configuration not stated) | no | no | no

The last 4 entries again:

{"compound": "Cc1cc(N2CCN(CCO)CC2)n2nc(-c3ccccc3C)nc2n1", "PreQ1": "no", "TPP": "no"}
{"compound": "CC(C)(C)c1cc(CN2CC[C@@H](NC(=O)c3ccncc3)[C@H](O)C2)n[nH]1", "SAM-II": "no", "PreQ1": "no", "TPP": "no"}
{"compound": "c1ccc(Cc2noc(CCNC3CCOC4(CCOCC4)C3)n2)cc1", "stereo": "configuration not stated", "SAM-II": "no", "PreQ1": "no", "TPP": "no"}
{"compound": "CC(=O)C1=C(O)C=C2Oc3c(C(C)=O)c(O)c(C)c(O)c3C2(C)C1=O", "stereo": "configuration not stated", "SAM-II": "no", "PreQ1": "no", "TPP": "no"}